Laboratory results reported in paper PMC4546403.
Results are given in words; binding and its absence hold for the method and conditions named. In cells and extracts the contact can be indirect. Some binding calls cover weakened binding; strength is not graded here.

By UniProt entry, the sequences of proteins in these tests, tags left out. Where a name states a change or a piece, a line headed by the entry shows the natural chain unless it says otherwise. Chains listed by the source or under a name are the forms on record and can include a tag or linker. Residues count along the entry.
mSmoWT-YFP (wild type mouse Smoothened with YFP tag) (P56726, residues 33-793): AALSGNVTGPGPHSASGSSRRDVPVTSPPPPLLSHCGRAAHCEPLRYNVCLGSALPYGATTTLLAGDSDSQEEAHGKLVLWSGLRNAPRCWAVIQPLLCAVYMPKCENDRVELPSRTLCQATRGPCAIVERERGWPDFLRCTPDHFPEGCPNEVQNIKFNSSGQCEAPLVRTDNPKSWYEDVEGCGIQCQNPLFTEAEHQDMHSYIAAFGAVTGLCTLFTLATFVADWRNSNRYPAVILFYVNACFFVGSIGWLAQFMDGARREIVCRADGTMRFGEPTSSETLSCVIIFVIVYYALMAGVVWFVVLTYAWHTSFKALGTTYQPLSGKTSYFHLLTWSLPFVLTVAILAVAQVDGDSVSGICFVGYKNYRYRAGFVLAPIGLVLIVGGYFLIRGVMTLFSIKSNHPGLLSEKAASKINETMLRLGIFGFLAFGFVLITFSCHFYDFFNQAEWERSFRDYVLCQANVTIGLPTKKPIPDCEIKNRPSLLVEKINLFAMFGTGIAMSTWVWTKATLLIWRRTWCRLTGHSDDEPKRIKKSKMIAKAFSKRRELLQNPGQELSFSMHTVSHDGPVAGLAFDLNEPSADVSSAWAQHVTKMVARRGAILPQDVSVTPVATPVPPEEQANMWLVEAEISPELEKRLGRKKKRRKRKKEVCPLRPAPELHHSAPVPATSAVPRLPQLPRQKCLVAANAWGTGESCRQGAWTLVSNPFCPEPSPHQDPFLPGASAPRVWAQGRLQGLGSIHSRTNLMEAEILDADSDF
mSmoNQ4-V5 (mouse Smoothened N38Q, N192Q, N450Q, N497Q with V5 epitope tag) (P56726, form named): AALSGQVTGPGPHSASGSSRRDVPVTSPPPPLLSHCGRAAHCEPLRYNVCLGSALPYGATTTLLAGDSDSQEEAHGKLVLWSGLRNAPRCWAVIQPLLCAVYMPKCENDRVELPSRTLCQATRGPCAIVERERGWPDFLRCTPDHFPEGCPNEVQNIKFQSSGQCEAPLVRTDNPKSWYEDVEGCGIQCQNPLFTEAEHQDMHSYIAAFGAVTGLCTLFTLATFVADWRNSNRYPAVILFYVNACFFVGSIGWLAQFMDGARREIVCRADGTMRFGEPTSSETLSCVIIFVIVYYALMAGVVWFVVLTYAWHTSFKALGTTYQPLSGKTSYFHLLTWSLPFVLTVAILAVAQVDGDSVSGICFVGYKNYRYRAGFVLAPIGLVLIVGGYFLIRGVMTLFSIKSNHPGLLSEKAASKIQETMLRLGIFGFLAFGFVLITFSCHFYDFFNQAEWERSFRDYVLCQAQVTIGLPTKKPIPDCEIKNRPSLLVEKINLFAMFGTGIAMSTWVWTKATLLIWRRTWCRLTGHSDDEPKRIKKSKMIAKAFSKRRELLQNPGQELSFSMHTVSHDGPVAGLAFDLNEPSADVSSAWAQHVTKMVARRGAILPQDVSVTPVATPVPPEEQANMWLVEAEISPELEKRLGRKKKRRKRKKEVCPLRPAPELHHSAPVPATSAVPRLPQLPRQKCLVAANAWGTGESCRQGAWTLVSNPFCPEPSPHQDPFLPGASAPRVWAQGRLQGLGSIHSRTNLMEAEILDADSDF

Tests used:
[1] = biological target: mSmoNQ4-YFP (mouse Smoothened N38Q, N192Q, N450Q, N497Q with YFP tag) (mouse) (UniProt P56726); assay: co-IP; Differentially tagged mSmo proteins co-expressed in NIH3T3 cells; RIPA lysates (~200 ug protein) pre-cleared, incubated with 5 ug anti-GFP or rabbit IgG control at 4°C for 2 hours, collected on protein A/G beads; western blot against V5
[2] = biological target: mSmoWT-YFP (wild type mouse Smoothened with YFP tag) (mouse) (UniProt P56726); assay: as above

- binding [1]: binds
- binding [2]: binds
Substance: mSmoNQ4-V5 (mouse Smoothened N38Q, N192Q, N450Q, N497Q with V5 epitope tag) (from UniProt P56726 33-793) (receptor)
